This note sets out measurements from publication PMC12524283.

By UniProt entry, the sequences of proteins in these tests, tags left out.
UniProt P17931: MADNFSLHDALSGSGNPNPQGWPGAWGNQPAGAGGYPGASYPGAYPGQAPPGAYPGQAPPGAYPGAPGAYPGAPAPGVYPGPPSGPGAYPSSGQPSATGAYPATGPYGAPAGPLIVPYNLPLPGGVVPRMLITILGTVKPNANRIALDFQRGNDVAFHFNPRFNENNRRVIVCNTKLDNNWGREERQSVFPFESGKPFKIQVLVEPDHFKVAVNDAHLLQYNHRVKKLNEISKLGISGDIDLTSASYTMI
UniProt Q8NFJ5: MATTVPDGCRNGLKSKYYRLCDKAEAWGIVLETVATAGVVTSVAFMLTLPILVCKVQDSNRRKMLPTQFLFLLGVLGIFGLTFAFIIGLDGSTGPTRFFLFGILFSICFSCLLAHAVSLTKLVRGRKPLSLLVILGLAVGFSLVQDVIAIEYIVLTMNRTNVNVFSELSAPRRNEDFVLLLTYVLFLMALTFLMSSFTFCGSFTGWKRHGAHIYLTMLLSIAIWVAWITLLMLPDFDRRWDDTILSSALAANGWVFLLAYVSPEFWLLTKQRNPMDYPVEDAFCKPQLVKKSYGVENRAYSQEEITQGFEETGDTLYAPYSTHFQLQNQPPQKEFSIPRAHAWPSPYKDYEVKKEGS

No constants are given. Whether binding was seen depends on the method and setting. Binding seen in cells or lysates may run through a third protein. Some results given as binding are weak or reduced against the parent protein; the word gives no strength.

Experiment [1] addresses GFP-Gal-3 (in HepG2 cells) (human) (UniProt P17931). Put plainly: co-IP; HepG2 cells transfected with GFP-Gal-3 plasmid; IP with µMACS anti-GFP magnetic microbeads, µMACS Protein G microbeads as negative control; Western blot with anti-GPRC5A and anti-Gal-3.
Experiment [2] concerns the target Galectin-3 (human (endogenous in HepG2)) (UniProt P17931). The experiment is described as follows: co-IP; co-IP of endogenous Gal-3 and GPRC5A in HepG2 cells (Supplementary Figure S2), Western blot. (In general: A western blot detects proteins with antibodies after separation by electrophoresis.)
Experiment [3] concerns the target GFP-Gal-3 (in SW480 cells) (human) (UniProt P17931). Put plainly: co-IP; SW480 cells transfected with GFP-Gal-3 plasmid (Supplementary Figure S3B).
The target in experiment [4] is Galectin-3 (SW480 cells) (human (endogenous in SW480)) (UniProt P17931). Put plainly: co-IP; anti-Gal-3 IP, or IP without antibodies, on µMACS Protein G magnetic microbeads from total protein extracts of SW480 cells; Western blot; performed one time.

With “orphan G-protein-coupled receptor GPRC5A (from UniProt Q8NFJ5 1-357)”, the binding entry in experiment [1] and in experiment [2] was “binds” each time.
For “GPRC5A (SW480 cells) (from UniProt Q8NFJ5 1-357) (receptor)”, the binding result in experiment [3] and in experiment [4] was “binds” each time.
